AC50 data for 62 compounds are collected here from PubChem BioAssay AID493014 (National Center for Advancing Translational Sciences (NCATS), 2011).

The structures appear in SMILES notation. This is one part of the list. Shown are side measurements of this screen, not its main read-out; they come without a call. The list favours compounds with an active or inconclusive main result. Words in brackets tell the shape of the fitted curve; partial curves, single points and poor fits give uncertain potencies.

A short description of the experiment: qHTS Assay to Find Inhibitors of Chronic Active B-Cell Receptor Signaling. The note with it: ABC-DLBCL IkBa-CBG/CBR reporter, luminescence ratio (green luciferase fused to IkBa over red control in TMD8 lymphoma cells), 4 h. In short, it runs like this: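 Compounds up to 46 uM were incubated four hours with TMD8 cells whose green CBG68 luciferase is fused to IkappaBalpha; red CBR luminescence normalised the signal, and concentration-effect curves were fitted to fusion, red and ratio data.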
(In general: Quantitative high-throughput screening tests each substance at several concentrations.)

[1] abbreviates: measured here: CBR red luminescence, cell number.
The mark [2] stands for this setting: measured here: IkBa-CBG green luminescence.

With `Cc1cccc(N2C(=O)CC(N(O)c3ccccc3)C2=O)c1` (stereo not drawn), the AC50 under setting [1] is 15.8 µM [falling, partial curve, poor fit].

In the case of `COc1ccc(S(=O)(=O)N2CCC(C(=O)NCc3ccccn3)CC2)cc1Cl`, the AC50 under setting [1] was 2.91 µM [falling, full curve, poor fit].

Consider `CCCCN1C(=O)/C(=C/C=C2\SCCN2C)SC1=S`, for which the AC50 under setting [1] is 10 µM [rising, partial curve, poor fit].

For the compound `Cc1ccc(S(=O)(=O)N(Cc2ccccc2)c2ccccc2C(=O)NCc2ccco2)cc1`, the AC50 under setting [1] was 12.6 µM [falling, partial curve, poor fit].

For the compound `CCCCCCCC(=O)NN=C1CCN(Cc2ccccc2)CC1`, under setting [1], the half-maximal activity concentration (AC50) was 4.11 µM [falling, single point].

With `CN(Cc1ccccc1)C(=O)COC(=O)c1cc([N+](=O)[O-])ccc1N1CCOCC1`, under setting [1], the AC50 is 20.6 µM [rising, partial curve].

On to `CCN1CCN(C(=O)c2cc(-c3ccc(Cl)s3)nc3ccccc23)CC1`, for which the concentration at half-maximal activity (AC50) under setting [1] is 22.4 µM [falling, partial curve, poor fit].

Regarding `CCC(CC)c1nnc(NC(=O)c2ccc3ccccc3n2)s1`, under setting [1], the AC50 was 1.26 µM [rising, full curve, poor fit].

With `O=C(Nc1ccc2ccccc2n1)Nc1cccs1`, the AC50 under setting [1] is 0.562 µM [rising, full curve].

On to `COc1cccc(-n2nnnc2SCC(=O)Nc2ccccc2OC)c1`, for which the AC50 under setting [1] was 7.08 µM [falling, partial curve].

`COc1ccccc1Nc1ncnc2c1cnn2-c1cccc(C)c1`: the AC50 under setting [1] was 8.91 µM [falling, partial curve].

Consider `CS(=O)(=O)N1CCN(C(=O)Cc2ccccc2)CC1`, for which the AC50 under setting [1] is 14.1 µM [rising, partial curve, poor fit].

Turning to `Cc1cc(NC(=O)c2cccc(Br)c2)n[nH]1`, the AC50 under setting [1] is 16.4 µM [falling, partial curve, poor fit].

Turning to `COc1ccc2sc(-c3ccccc3OC)c(-c3ccc(OCCN4CCOCC4)cc3)c2c1`, under setting [2], the concentration at half-maximal activity (AC50) is 20.6 µM [falling, single point].

For the compound `Cc1cc(OCC(=O)Nc2ccccc2N2CCCC2)ccc1C(C)C`, under setting [1], the AC50 was 25.9 µM [rising, single point].

As for `Cc1ccccc1NC(=O)c1ccccc1NC(=O)CCC(=O)O`, the half-maximal activity concentration (AC50) under setting [1] was 32.6 µM [rising, partial curve, poor fit].

With `CCOc1ccc(/C=C2\SC(=S)N(CCC(=O)Nc3ccccc3C(=O)O)C2=O)cc1`, under setting [1], the AC50 was 6.31 µM [rising, single point].

Turning to `COc1ccc(C(=O)N[C@H](C(=O)Nc2nc3ccccc3[nH]2)C(C)C)cc1`, the concentration at half-maximal activity (AC50) under setting [1] is 15.8 µM [falling, partial curve] and the AC50 under setting [2] is 3.16 µM [falling, full curve, poor fit].

Turning to `Cc1nc(NC(CC(C)C)C(=O)O)c2nc(C)oc2n1` (stereo not drawn), the AC50 is, setting by setting: under setting [1], 29.1 µM [falling, single point]; under setting [2], 32.6 µM [rising, partial curve, poor fit].

As to `CC(=O)c1cccc(NC(=O)c2ccc3c(c2)OCO3)c1`, the half-maximal activity concentration (AC50) under setting [1] was 17.8 µM [falling, single point].

For `C/C(=N\NC(=O)c1ccncc1)c1ccc(N(C)C)cc1`, the AC50 under setting [1] was 35.5 µM [falling, single point].

Turning to `CC1CCCCN1C(=O)Nc1cccc(Cl)c1` (stereo not drawn), under setting [1], the AC50 is 22.4 µM [rising, single point].

Take `CCCNC(=O)NS(=O)(=O)c1cnccc1Sc1ccc(Cl)c(Cl)c1`: under setting [1], the AC50 is 3.98 µM [rising, full curve, poor fit].

As to `CN1Cc2cc(C(=O)c3cc(Cl)cc(CSc4ncccn4)c3O)cnc2NC1=O`, the AC50 runs as follows: under setting [1], 0.891 µM [rising, full curve, poor fit]; under setting [2], 2 µM [falling, full curve].

Turning to `O=C(CN1C(=O)C2C3C=CC(C3)C2C1=O)Nc1ccc(F)cc1` (stereo not drawn), the AC50 under setting [1] is 0.501 µM [falling, full curve, poor fit].

On to `COc1cccc(-c2nnc(SCC(=O)N3CCOCC3)o2)c1`, for which the AC50 under setting [1] was 22.4 µM [falling, single point].

For the compound `NS(=O)(=O)c1ccc(NC(=O)CCC2CCCCC2)cc1`, under setting [1], the AC50 was 2.82 µM [rising, full curve, poor fit].

In the case of `CC1CCN(c2ccc([N+](=O)[O-])cn2)CC1`, the concentration at half-maximal activity (AC50) under setting [1] is 3.66 µM [rising, full curve, poor fit].

Take `CCOC(=O)C1CCCCN1Cc1ccc(-c2ccccc2)cc1` (stereo not drawn): the AC50 under setting [1] was 35.5 µM [rising, single point].

Regarding `COc1cccc(C(=O)Nc2ccccc2C(=O)N2CCCC2)c1`, the AC50 under setting [1] is 4.61 µM [falling, partial curve, poor fit].

`O=C(Nc1ccc(F)cc1)N(CCCN1CCOCC1)Cc1cc2cc3c(cc2[nH]c1=O)OCCO3`: the AC50 under setting [1] is 6.31 µM [falling, partial curve].

In the case of `CCOC(=O)c1c(NC(=O)c2cc(C(C)C)on2)sc(C(C)=O)c1C`, the AC50 under setting [1] is 6.51 µM [falling, single point].

Take `CCOc1ccc(-n2c(N)c(C(=O)NCc3ccco3)c3nc4ccccc4nc32)cc1`: under setting [1], the AC50 is 29.1 µM [falling, single point].

`O=C(Nc1ccc(N2CCOCC2)c(Cl)c1)C1CCCCC1`: the AC50 under setting [1] is 16.4 µM [falling, partial curve, poor fit].

On to `CCNc1nc(NCC)nc(SCCOC(=O)COc2ccc(Cl)cc2Cl)n1`, for which the half-maximal activity concentration (AC50) under setting [1] was 23.1 µM [falling, partial curve].

With `CCCNC(=O)NNC(=O)c1cc(-c2ccc3c(c2)OCO3)nc2ccccc12`, under setting [1], the AC50 is 15.8 µM [falling, partial curve, poor fit].

`COc1cccc(-c2nc(Oc3cccc(C)c3C)c3ccccc3n2)c1O`: the AC50 under setting [1] is 0.206 µM [rising, full curve, poor fit].

On to `Cc1onc(-c2ccccc2Cl)c1C(=O)NCc1nnnn1-c1ccc(F)cc1`, for which the AC50 under setting [1] is 14.6 µM [rising, partial curve, poor fit].

Regarding `CC(/C=N/NC(=O)c1cc(-c2ccncc2)nc2ccccc12)=C\c1ccco1`, the concentration at half-maximal activity (AC50) was 15.8 µM [rising, partial curve] under setting [1] and 10 µM [falling, partial curve] under setting [2].

Consider `O=C(Nc1ccccc1F)Nc1ccccc1Br`, for which the AC50 under setting [1] was 5.62 µM [falling, partial curve, poor fit].

With `CCCOc1ccc(/C=N/NC(=O)c2ccc(Cn3cc([N+](=O)[O-])cn3)o2)cc1`, under setting [1], the AC50 was 7.08 µM [falling, partial curve].

As for `COc1ccc(NC(=O)c2cc3ccccc3cc2OC)cc1OC`, the AC50 under setting [1] was 20 µM [falling, single point].

For `O=[N+]([O-])c1ccc(-c2nnc3cccc(Cl)n23)cc1`, the AC50 under setting [1] is 10 µM [rising, partial curve].

Take `N#Cc1ccc(C(=O)Nc2ccc([N+](=O)[O-])cc2)c(F)c1`: the AC50 under setting [1] is 0.282 µM [rising, full curve, poor fit].

As for `COc1ccc(NS(=O)(=O)c2cc(NC(=O)c3ccc(Cl)cc3)ccc2N2CCOCC2)cc1`, the half-maximal activity concentration (AC50) under setting [1] was 2.06 µM [rising, full curve].

`O=C(c1cc(-c2ccc(Cl)cc2)n(-c2ccc(Cl)c(Cl)c2)n1)N1CCOCC1`: under setting [1], the half-maximal activity concentration (AC50) is 0.259 µM [rising, full curve, poor fit].

`Fc1ccc(Nc2ccc3ccccc3n2)c(F)c1`: the AC50 under setting [1] is 2.51 µM [rising, partial curve].

Consider `CCc1cccc2sc(N3CCN(C(=O)c4ccc([N+](=O)[O-])o4)CC3)nc12`, for which, under setting [1], the AC50 is 29.1 µM [falling, single point].

With `COc1ccc(OCCN2CCN(S(=O)(=O)c3ccccc3C#N)CC2)cc1`, the AC50 is 6.51 µM [rising, single point] under setting [1] and 3.66 µM [falling, partial curve, poor fit] under setting [2].

With `O=C(Oc1ccc(N(C(=O)c2ccncc2)S(=O)(=O)c2ccc(Cl)cc2)cc1)c1ccncc1`, the AC50 under setting [1] was 0.794 µM [falling, full curve].

`CN(CC(=O)NCCCN1CCOCC1)S(=O)(=O)c1ccc(Br)cc1`: the AC50 is, setting by setting: under setting [1], 6.51 µM [falling, partial curve]; under setting [2], 29.1 µM [rising, partial curve, poor fit].

In the case of `O=C(C[n+]1cc(-c2ccc(Cl)cc2)n2c1CCC2)N1c2ccccc2Sc2ccccc21`, under setting [1], the AC50 was 11.6 µM [falling, partial curve].

`COc1ccsc1C(=O)N1CCN(Cc2ccc3c(c2)OCO3)CC1`: the AC50 under setting [1] was 0.461 µM [rising, partial curve, poor fit].

Regarding `COc1cc(C(=O)Nc2ccccc2NC(=O)c2cc(OC)c(OC)c(OC)c2)cc(OC)c1OC`, the AC50 under setting [1] was 0.316 µM [rising, full curve].

With `Cc1ccc(Oc2nc3c(c(=O)n(C)c(=O)n3C)n2C)cc1C`, the AC50 under setting [1] was 7.08 µM [falling, partial curve, poor fit].

Regarding `CC1CCN(CC(=O)Nc2sc3c(c2C#N)CCC3)CC1`, the AC50 under setting [1] is 0.631 µM [rising, full curve, poor fit].

As for `CCCn1nnc(NC(=O)c2ccc3c(c2)OCO3)n1`, under setting [1], the AC50 is 1.12 µM [falling, full curve, poor fit].

For `COc1ccc(C2(CNC(=O)c3ccc(C)cc3)CCOCC2)cc1`, the concentration at half-maximal activity (AC50) under setting [1] is 22.4 µM [rising, single point].

As to `CCOC(=O)c1c(C)[nH]c(C(=O)CN2C(=O)NC(C)(c3ccc(C)cc3)C2=O)c1C` (stereo not drawn), under setting [1], the AC50 is 6.31 µM [falling, partial curve, poor fit].

With `c1ccc(C2=Nn3c(nnc3-c3cccnc3)SC2)cc1`, the AC50 under setting [1] is 25.1 µM [falling, single point].

On to `c1ccc2c(c1)Cc1cc(CN3CCOCC3)ccc1-2`, for which the AC50 under setting [1] was 14.6 µM [rising, partial curve, poor fit].

On to `CC(=O)c1nc(N2C(=O)C3CC=C(C)CC3C2=O)sc1C` (stereo not drawn), for which the AC50 under setting [1] is 29.1 µM [falling, single point].

What is called AC50 is the midpoint of the concentration-response curve, whichever way the signal moves.
